From PubChem BioAssay AID504327 (National Center for Advancing Translational Sciences (NCATS), 2011)
Among all 390,000 compounds or so, about 820 (0.21%) were called active. The inconclusive results got no clear call from the source; some entries with a clear call stand among them for comparison. Calls follow the shape of the dose curve; as a rule, active = well fitted inhibition curve with a large enough effect; inconclusive = small, poorly fitted or top-dose-only effect, or another doubt; inactive = no such curve, though single readings can be large or run the other way. Potencies of inconclusive entries are doubtful fits and often do not repeat.

The chains behind the UniProt entries cited, without tags or fusion partners.
UniProt Q92830, whole entry, looked up: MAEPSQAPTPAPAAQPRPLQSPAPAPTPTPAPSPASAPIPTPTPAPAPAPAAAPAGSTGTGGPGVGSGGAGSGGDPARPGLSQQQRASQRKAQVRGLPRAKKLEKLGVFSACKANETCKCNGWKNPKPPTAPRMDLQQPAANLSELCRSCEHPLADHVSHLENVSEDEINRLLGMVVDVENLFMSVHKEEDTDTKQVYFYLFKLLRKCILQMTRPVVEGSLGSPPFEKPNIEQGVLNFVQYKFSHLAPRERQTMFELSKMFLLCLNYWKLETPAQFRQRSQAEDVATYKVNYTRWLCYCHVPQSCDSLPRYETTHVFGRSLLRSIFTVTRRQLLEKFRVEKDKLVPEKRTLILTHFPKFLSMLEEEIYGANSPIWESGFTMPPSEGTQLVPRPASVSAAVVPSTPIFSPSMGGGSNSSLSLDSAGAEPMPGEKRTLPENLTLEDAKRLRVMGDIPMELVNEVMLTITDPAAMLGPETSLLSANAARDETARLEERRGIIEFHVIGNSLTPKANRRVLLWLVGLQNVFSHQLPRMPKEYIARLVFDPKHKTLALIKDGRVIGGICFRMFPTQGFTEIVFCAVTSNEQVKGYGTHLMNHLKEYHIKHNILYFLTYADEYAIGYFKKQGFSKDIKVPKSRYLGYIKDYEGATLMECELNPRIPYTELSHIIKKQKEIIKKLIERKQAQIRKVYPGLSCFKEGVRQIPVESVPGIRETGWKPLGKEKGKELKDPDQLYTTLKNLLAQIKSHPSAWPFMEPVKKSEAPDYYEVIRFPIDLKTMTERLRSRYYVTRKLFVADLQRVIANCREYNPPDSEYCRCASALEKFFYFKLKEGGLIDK

The molecules below were run against Histone acetyltransferase KAT2A (Homo sapiens) (UniProt Q92830) (assay: qHTS Assay for Inhibitors of GCN5L2). Conditions: GCN5L2 HAT assay, ThioGlo1 CoA-SH fluorescence; activity change, negative = inhibition: at 58.9 µM (top of the series) unless noted.
Summary of the method: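 qHTS, 1536-well. 20nM enzyme, pH 7.5 HEPES/EDTA/Tween-20 buffer; 15 min compound preinc., RT. Start: 75uM H3(1-25), 70uM AcCoA, 50uM ThioGlo1. Read Ex340/Em540 at t=0 (autofluorescence flag) and t=20 min.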
% is scaled to controls: 0 for no effect and ±100 for the full control effect; potency is read from the fitted curve at half-maximal effect.

| Compound | Potency | activity change, negative = inhibition |
| --- | --- | --- |
| CC(=O)N1N=C(c2cccc(Cl)c2)OC1c1cccc([N+](=O)[O-])c1 (centres undefined) | inactive |  |
| CC(C)c1ccccc1-n1cc[nH]c1=S | inactive |  |
| O=C(O)c1cc2c(cc1NC(=O)C1CCCC1)OCCO2 | inconclusive: 28.2 µM [inhibitor, single point] |  |
| COc1ccccc1NS(=O)(=O)c1cc(NC(=O)Nc2ccccc2)ccc1N1CCCCC1 | inactive |  |
| Cc1n[nH]c(C)c1CCCCOc1ccccc1 | inactive |  |
| CCc1ccccc1NC(=O)/C(C#N)=C\c1ccc(Sc2ccccc2)o1 | inconclusive: 39.8 µM [inhibitor, single point] |  |
| Oc1ccc(C(=S)N2CCCC2)cc1 | inconclusive: 22.4 µM [inhibitor, single point] |  |
| CCN1CCN(C(=O)CCS(=O)(=O)c2cc3c(cc2Cl)NC(=O)CO3)CC1 | inconclusive: 39.8 µM [inhibitor, single point] |  |
| Nc1nc(-c2ccccc2)c(N=Nc2ccc(Cl)cc2)s1 | inactive |  |
| Cc1ccc2oc(C(=O)NCc3ncc(C)[nH]3)c(C)c2c1 | inconclusive: 1.12 µM [inhibitor, full curve, poor fit] |  |
| CNC(=O)c1cc(NC(=O)CCn2nc(-c3ccccc3)c3ccccc3c2=O)ccc1OC | inconclusive: 5.01 µM [inhibitor, single point] |  |
| CCOC(=O)N1CCN(c2ncnc3c2cnn3-c2ccc(Cl)cc2)CC1 | inconclusive: 1.78 µM [inhibitor, partial curve] |  |
| O=C(NCC1CCOCC1)c1ccc2nc(Cc3cccc(Cl)c3)oc2c1 | inconclusive: 10 µM [inhibitor, partial curve, poor fit] |  |
| CC(=O)N1CCN(c2ccc(NC(=O)C(c3ccccc3)c3ccccc3)cc2)CC1 | inactive |  |
| COc1ccc(N(CC(=O)N2CCc3ccccc3C2)S(=O)(=O)c2ccccc2)cc1 | inactive |  |
| Cc1ccnc(NS(=O)(=O)c2ccc(NC(=O)c3snnc3C)cc2)n1 | inactive |  |
| CC[n+]1c(C)sc2c3ccsc3ccc21 | inactive |  |
| C[C@@H](C(=O)NCC1CC1)[C@H]1C[C@]1(C)[C@H](NC(=O)OCc1ccccc1)c1ccccc1 | inactive |  |
| Cc1c2cc(O)c(=O)cc-2oc2cc(O)c(O)cc12 | inconclusive: 31.6 µM [inhibitor, single point] |  |
| NC1=NCC2c3ccccc3Cc3ccccc3N12 (centres undefined) | inactive |  |
| O=C(NCc1ccc(Cl)cc1)C1CCC(=O)N(C2CCCCCC2)C1 (centres undefined) | inconclusive: 0.631 µM [inhibitor, single point] |  |
| O=c1c(CCc2ccccc2)nc2cnc(N3CCNCC3)nc2n1Cc1ccc(F)cc1 | inconclusive: 25.1 µM [inhibitor, single point] |  |

Four of the compounds above, with tabs:
Compound	Potency	activity change, negative = inhibition
Cc1ccc2oc(C(=O)NCc3ncc(C)[nH]3)c(C)c2c1	inconclusive: 1.12 µM [inhibitor, full curve, poor fit]	
CCOC(=O)N1CCN(c2ncnc3c2cnn3-c2ccc(Cl)cc2)CC1	inconclusive: 1.78 µM [inhibitor, partial curve]	
COc1ccc(N(CC(=O)N2CCc3ccccc3C2)S(=O)(=O)c2ccccc2)cc1	inactive	
CC[n+]1c(C)sc2c3ccsc3ccc21	inactive	

Remaining list, next part.

| Compound | Potency | activity change, negative = inhibition |
| --- | --- | --- |
| O=C(N/N=C/c1cccc(O)c1)c1cc(-c2ccccc2)nc2ccccc12 | inconclusive: 14.1 µM [inhibitor, partial curve] |  |
| CCOc1ccc(S(=O)(=O)N2CCN(c3ccc(C)cc3C)CC2)cc1 | inconclusive: 31.6 µM [inhibitor, single point] |  |
| CCCCN(CCCNC(=O)c1ccc(CS(=O)(=O)c2c(Cl)cccc2Cl)o1)Cc1ccccc1 | inconclusive: 0.355 µM [inhibitor, full curve, poor fit] |  |
| O=C(O)c1ccccc1N/N=C\c1ccnc2ccccc12 | inconclusive: 11.2 µM [inhibitor, single point] |  |
| CC1CCN(C(=O)COC(=O)CNC(=O)C23CC4CC(CC(C4)C2)C3)CC1 | inactive |  |
| COc1ccc(NC(=S)NNc2ccc([N+](=O)[O-])cc2S(=O)(=O)Nc2ccc(C)cc2C)cc1 | inconclusive: 15.8 µM [inhibitor, partial curve] |  |
| CCc1ccccc1NC(=O)CSc1ncc2c(n1)-c1cc(Cl)ccc1N(Cc1ccccc1)S2(=O)=O | inconclusive: 39.8 µM [inhibitor, single point] |  |
| COc1ccc(S(=O)(=O)c2c(Nc3ccc(C)cc3C)sc(C(=O)c3ccc(F)cc3)c2N)cc1 | inconclusive: 0.562 µM [inhibitor, full curve, poor fit] |  |
| CN(CC(=O)Nc1ccc(C#N)cc1)Cc1ccc(Cl)c(Cl)c1 | inconclusive: 39.8 µM [inhibitor, single point] |  |
| Cc1ccc(-c2cc(C(=O)O)c3ccccc3n2)s1 | inconclusive: 25.1 µM [inhibitor, single point] |  |
| O=S(=O)(NC1c2cccc3cccc(c23)C1N1CCNCC1)c1ccc(Cl)cc1 (centres undefined) | inactive |  |
| CC(C)(C)c1ccc(S(=O)(=O)c2cnc(SCC(=O)Nc3ccc4c(c3)OCCO4)[nH]c2=O)cc1 | inconclusive: 39.8 µM [inhibitor, single point] |  |
| COc1ccc(-c2nc(CSCC(=O)NC3CCCc4ccccc43)c(C)o2)cc1OC (centres undefined) |  | inconclusive: -89.4% [inhibitor] |
| CN1CCN(CCn2c(=S)[nH]c3ccccc3c2=O)CC1 | inconclusive: 8.91 µM [inhibitor, partial curve] |  |
| CCOC(=O)c1c(NC(=O)CC)sc2c1CCN(Cc1ccccc1)C2 | inconclusive: 0.631 µM [inhibitor, single point] |  |
| Fc1ccc(Cn2c(-c3cscn3)nc3ccccc32)c(Cl)c1 | inconclusive: 35.5 µM [inhibitor, single point] |  |
| C=CCn1c(SCC(=O)O)nnc1-c1cccc(Cl)c1 | inactive |  |
| CC1CCC(NC(=O)CCC(=O)N2CC(C)Oc3ccccc32)CC1 (centres undefined) | inconclusive: 0.112 µM [inhibitor, full curve, poor fit] |  |
| CC1CCN(c2ccc3c(c2)S(=O)(=O)c2cccc(C(=O)NCc4cccc(F)c4)c2C3=O)CC1 | inconclusive: 39.8 µM [inhibitor, single point] |  |
| O=C(OCCN1C(=O)c2cccc3c(N4CCOCC4)ccc(c23)C1=O)c1ccccc1Cl | inconclusive: 31.6 µM [inhibitor, single point] |  |
| COc1ccc(C(C[N+](=O)[O-])c2c(-c3ccccc3)cc3ccccn23)c(OC)c1 (centres undefined) | inactive |  |
| OCCNCC1(O)C2CC3CC(C2)CC1C3 (centres undefined) | inconclusive: 0.891 µM [inhibitor, full curve, poor fit] |  |
